Measured values published in publication PMC5651247.
Results are given in words; binding and its absence hold for the method and conditions named. For part of these data: Binding seen in cells or lysates may run through a third protein. Some results given as binding are weak or reduced against the parent protein; the word gives no strength.

By UniProt entry, the sequences of proteins in these tests, tags left out. Residues count along the entry.
UniProt Q03591, residues 19-330: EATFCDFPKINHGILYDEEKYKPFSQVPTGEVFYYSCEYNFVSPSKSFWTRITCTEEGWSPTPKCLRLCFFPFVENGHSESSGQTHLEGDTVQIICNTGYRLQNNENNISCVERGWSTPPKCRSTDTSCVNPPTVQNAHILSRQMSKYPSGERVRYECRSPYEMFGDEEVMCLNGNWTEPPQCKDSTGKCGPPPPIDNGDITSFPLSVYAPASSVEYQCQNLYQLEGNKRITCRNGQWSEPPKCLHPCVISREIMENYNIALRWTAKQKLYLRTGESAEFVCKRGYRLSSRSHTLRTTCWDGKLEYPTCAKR
UniProt P36980, residues 19-270: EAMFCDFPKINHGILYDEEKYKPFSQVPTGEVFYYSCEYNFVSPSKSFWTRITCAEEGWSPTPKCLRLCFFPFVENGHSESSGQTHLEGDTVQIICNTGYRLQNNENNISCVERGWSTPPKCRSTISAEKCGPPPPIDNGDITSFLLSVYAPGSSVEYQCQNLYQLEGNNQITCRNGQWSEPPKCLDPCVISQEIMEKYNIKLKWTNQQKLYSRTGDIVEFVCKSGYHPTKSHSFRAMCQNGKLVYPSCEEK

Assays:
[1] = target: Recombinant human FHR-1 (rFHR-1), CFHR1*A allotype, C-terminal 6×His (human) (UniProt Q03591); experiment: ELISA; the same homodimer sandwich ELISAs (one mAb to capture and to detect) on purified rFHR-1 or rFHR-2 diluted in HPE, RT; both purified
[2] = target: Factor H-related-1 (FHR-1), serum-derived (human (endogenous in serum)) (UniProt Q03591); experiment: ELISA; FHR-1/2 ELISA of equal amounts of CFHR1-deficient and CFHR2^mut/mut (FHR-2-deficient) serum, mixed and incubated at 37°C for >2 h
[3] = target: Recombinant human FHR-1 (rFHR-1), CFHR1*A allotype, C-terminal 6×His (human) (UniProt Q03591); experiment: ELISA; FHR-1/2 ELISA (anti-FH.02 to capture, anti-FHR-2 to detect) of pooled CFHR3/CFHR1-deficient serum incubated with 5 µg/mL rFHR-1 at 37°C for >2 h; only the target purified
[4] = target: Factor H-related-1 (FHR-1), serum-derived (human (endogenous in serum)) (UniProt Q03591); experiment: ELISA; sandwich ELISAs for dimers in serum: FHR-1/1 (anti-FH.02 to capture and to detect), FHR-1/2 (anti-FH.02 to capture, anti-FHR-2 to detect), FHR-2/2 (anti-FHR-2-FLAG on anti-FLAG to capture, biotinylated anti-FHR-2 to detect); serum diluted in HPE, RT
[5] = target: Factor H-related-2 (FHR-2), serum-derived (human (endogenous in serum)) (UniProt P36980); experiment: as above
[6] = target: Factor H-related-1 (FHR-1), serum-derived (human (endogenous in serum)) (UniProt Q03591); experiment: heparin affinity chromatography with ELISA of the fractions; 150 µL untreated serum (NHS or pooled CFHR3/CFHR1-deficient) in 10 mM NaPO4 pH 7.4 on a 1 mL HP Heparin column, linear gradient 0 to 2 M NaCl; dimers in the fractions measured by the dimer ELISAs
[7] = target: Factor H-related-1 (FHR-1), serum-derived (human (endogenous in serum)) (UniProt Q03591); experiment: co-IP; from 200 µL human serum of healthy donors with zero or two copies of CFHR1, without prior purification; anti-FH.02 (FHR-1), anti-FHR-2 or anti-FHR-5.1 on RM-19 Sepharose, PBS with 0.1% Tween-20, 0.1% BSA, 10 mM EDTA, o/n at 4°C; Western blot with anti-FHR-2.1 and anti-FHR-5.4
[8] = target: Factor H-related-2 (FHR-2), serum-derived (human (endogenous in serum)) (UniProt P36980); experiment: as above

binding [1] | binding [2] | binding [3] | binding [4] | binding [5] | binding [6] | binding [7] | binding [8] | Substance
binds |  |  |  |  |  |  |  | Recombinant human FHR-1 (rFHR-1), CFHR1*A allotype, C-terminal 6×His (from UniProt Q03591 19-330)
 | binds | binds | binds | binds | binds | binds |  | Factor H-related-2 (FHR-2), serum-derived (from UniProt P36980 19-270)
 |  |  | binds |  |  |  | binds | Factor H-related-1 (FHR-1), serum-derived (from UniProt Q03591 19-330)
